Measured values published in publication PMC7762994 (Viruses, 2020).
These are yes or no findings as the source states them, for the method shown. In cells and extracts the contact can be indirect. Some entries that bind do so weakly or less than the wild type.

Protein sequences, listed by entry. Tags and fused reporters are not part of them.
UniProt P0DMV8: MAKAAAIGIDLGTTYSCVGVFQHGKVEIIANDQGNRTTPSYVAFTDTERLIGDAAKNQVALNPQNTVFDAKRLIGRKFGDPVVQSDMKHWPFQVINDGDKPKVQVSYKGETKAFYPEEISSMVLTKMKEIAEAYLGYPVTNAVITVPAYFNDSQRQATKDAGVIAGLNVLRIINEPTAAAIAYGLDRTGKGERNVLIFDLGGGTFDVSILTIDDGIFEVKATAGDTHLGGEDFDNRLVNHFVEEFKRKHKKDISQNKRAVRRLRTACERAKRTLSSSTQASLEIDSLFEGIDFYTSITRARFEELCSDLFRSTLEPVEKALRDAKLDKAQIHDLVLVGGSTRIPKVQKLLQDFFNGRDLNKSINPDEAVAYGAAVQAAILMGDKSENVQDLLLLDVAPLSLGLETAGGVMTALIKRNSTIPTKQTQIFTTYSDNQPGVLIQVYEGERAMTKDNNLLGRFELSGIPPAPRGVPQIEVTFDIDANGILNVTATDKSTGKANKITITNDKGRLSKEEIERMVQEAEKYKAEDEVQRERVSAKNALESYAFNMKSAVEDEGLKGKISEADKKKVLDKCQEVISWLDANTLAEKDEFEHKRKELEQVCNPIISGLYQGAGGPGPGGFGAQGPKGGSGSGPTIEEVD
UniProt P27318: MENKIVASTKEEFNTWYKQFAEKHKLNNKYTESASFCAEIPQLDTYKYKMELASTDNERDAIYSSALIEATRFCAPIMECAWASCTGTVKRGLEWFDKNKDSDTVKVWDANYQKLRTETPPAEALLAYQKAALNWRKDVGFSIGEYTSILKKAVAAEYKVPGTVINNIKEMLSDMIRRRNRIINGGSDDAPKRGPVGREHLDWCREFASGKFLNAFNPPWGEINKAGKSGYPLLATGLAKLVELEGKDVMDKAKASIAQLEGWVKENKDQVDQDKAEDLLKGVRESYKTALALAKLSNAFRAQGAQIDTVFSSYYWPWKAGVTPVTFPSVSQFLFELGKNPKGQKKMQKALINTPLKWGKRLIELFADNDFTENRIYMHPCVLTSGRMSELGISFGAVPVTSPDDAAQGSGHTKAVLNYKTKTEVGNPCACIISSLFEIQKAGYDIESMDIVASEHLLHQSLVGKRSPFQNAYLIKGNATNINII

Target: Hsp70 (protein product of the HSPA1A gene) (human (endogenous in Hek293T)) (UniProt P0DMV8)
Test: co-IP

With “Hazara virus (HAZV) nucleoprotein (from UniProt P27318 1-485)” the binding was “binds”.
